Laboratory results published in publication PMC8321558.
Positions count from the first letter of the chain named. Numbers in names are those of the source. These are yes or no findings as the source states them, for the method shown. For part of these data: A result given as binding can be weak or reduced; the word gives no strength. For part of these data: Where a sequence is shown, tags or fusion partners need not be part of it. Blank lines part the entries; values can stand above or below the molecule they belong to.

Columns and labels:
[1] = target: T1, NirD (purified, untagged) (Escherichia coli) (UniProt P0A9I8); test: SEC; RelA^N-terminal and NirD alone or pre-mixed 1:1 (10 µM each); Superdex 200 10/300 GL; 50 mM Tris-HCl pH 8.0, 500 mM NaCl, 500 mM KCl, 2 mM β-mercaptoethanol, 2% glycerol; fractions analysed by SDS-PAGE; both purified
T1 sequence (chain, biotinylated with EZ-Link NHS-PEG4-Biotin for the biolayer interferometry only): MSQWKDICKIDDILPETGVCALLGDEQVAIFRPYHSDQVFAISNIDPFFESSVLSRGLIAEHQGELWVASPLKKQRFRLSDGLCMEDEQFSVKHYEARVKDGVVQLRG

[2] = target: T2, NirD^E50K (purified, untagged) (Escherichia coli) (UniProt P0A9I8); test: condition: RelA^N-terminal at concentrations ranging from 0.1 to 30 µM; BLI; biotinylated NirD or NirD^E50K on streptavidin biosensors, RelA^N-terminal as analyte (up to 30 µM); BLItz, 25°C; 50 mM Tris-HCl pH 8.0, 500 mM NaCl, 500 mM KCl, 2 mM β-mercaptoethanol, 2% glycerol; KD from steady-state responses, one site model; both purified
T2 sequence (chain, biotinylated with EZ-Link NHS-PEG4-Biotin for the biolayer interferometry only): T1 sequence (chain, biotinylated with EZ-Link NHS-PEG4-Biotin for the biolayer interferometry only) with E50K

[3] = target: T25-RelA^N-terminal (Escherichia coli); test: two-hybrid; bacterial two-hybrid (T18 and T25 domains of B. pertussis adenylate cyclase; pUT18C and pKT25) in cya-deficient E. coli BTH101, 30°C; X-Gal plates and β-galactosidase activity
[4] = target: T25-SpoT^N-terminal (Escherichia coli); test: as above
[5] = target: T3, RelA^N-terminal (purified RelA catalytic domains) (Escherichia coli); test: condition: 300 µM NirD^E50K in the syringe, 30 µM RelA^N-terminal in the cell; ITC; RelA^N-terminal (30 µM) in the cell, NirD or NirD^E50K (300 µM) in the syringe; 25°C; 50 mM Tris-HCl pH 8.0, 500 mM NaCl, 500 mM KCl, 2 mM β-mercaptoethanol, 2% glycerol; One Set of Sites model; both purified
T3 sequence (P0AG20 whole entry, looked up): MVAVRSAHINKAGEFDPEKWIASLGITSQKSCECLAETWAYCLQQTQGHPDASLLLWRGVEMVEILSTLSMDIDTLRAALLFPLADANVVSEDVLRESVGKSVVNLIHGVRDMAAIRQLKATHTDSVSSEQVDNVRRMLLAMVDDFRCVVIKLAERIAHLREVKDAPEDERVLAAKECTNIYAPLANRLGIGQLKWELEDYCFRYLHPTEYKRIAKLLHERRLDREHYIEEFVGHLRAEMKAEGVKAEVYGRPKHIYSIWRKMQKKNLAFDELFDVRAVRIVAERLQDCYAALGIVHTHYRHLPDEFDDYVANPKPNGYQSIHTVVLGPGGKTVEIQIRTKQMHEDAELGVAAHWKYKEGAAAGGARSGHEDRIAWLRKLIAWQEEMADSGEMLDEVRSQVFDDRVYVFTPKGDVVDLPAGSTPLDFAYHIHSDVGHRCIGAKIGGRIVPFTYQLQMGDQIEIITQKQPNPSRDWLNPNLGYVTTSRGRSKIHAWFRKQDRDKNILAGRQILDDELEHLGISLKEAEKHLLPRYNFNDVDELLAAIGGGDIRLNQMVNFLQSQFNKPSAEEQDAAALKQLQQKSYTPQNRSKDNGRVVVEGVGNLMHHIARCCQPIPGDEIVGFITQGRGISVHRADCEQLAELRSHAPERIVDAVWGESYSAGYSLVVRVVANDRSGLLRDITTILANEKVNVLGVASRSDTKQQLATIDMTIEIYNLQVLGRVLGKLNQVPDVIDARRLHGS

Molecule: RelA^N-terminal (purified RelA catalytic domains) (Escherichia coli) (domain or fragment)
binding [1]: binds | binding [2]: no binding

B2: T18-NirD^E50K (protein, UniProt P0A9I8 1-108)
chain: T1 sequence (chain, biotinylated with EZ-Link NHS-PEG4-Biotin for the biolayer interferometry only) with E50K
binding [3]: no binding

Now from value to molecule:

binding [3]: binds | binding [4]: no binding
B1: T18-NirD (protein, UniProt P0A9I8 1-108)
chain: T1 sequence (chain, biotinylated with EZ-Link NHS-PEG4-Biotin for the biolayer interferometry only)

binding [5]: no binding
B3: NirD^E50K (purified, untagged) (protein, UniProt P0A9I8 1-108)
chain: T1 sequence (chain, biotinylated with EZ-Link NHS-PEG4-Biotin for the biolayer interferometry only) with E50K
modifications: biotinylated with EZ-Link NHS-PEG4-Biotin for the biolayer interferometry only
